Data published in the supplement of paper PMC6078165.

System: Hs578T
Test: relative JC-1 red fluorescence (viability) vs pre-drug, coculture with fibroblast (fraction); higher = more viable cancer cells
Protocol: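 JC-1 labelled TNBC cells cocultured 1:1 (1,500 cells each) with CellTrace Violet stained primary or stromal fibroblasts in 384-well plates in FluoroBrite medium, treated with one of 42 anticancer drugs at 0.1, 1, 10 or 100 uM. JC-1 red fluorescence (mitochondrial integrity in cancer cells only) was read by plate reader every 8 h for 72 h. Values are normalised to each well's pre-drug value. The stock of one drug was tenfold lower, so its dose labels may be too high.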

CCCCCOC(=O)Nc1nc(=O)n([C@@H]2O[C@H](C)[C@@H](O)[C@H]2O)cc1F [Capecitabine]
relative JC-1 red fluorescence
Details | 8 h | 16 h | 24 h | 32 h | 40 h | 48 h | 56 h | 64 h | 72 h
0.1 µM | 0.969 ± 0.031 | 0.854 ± 0.024 | 0.776 ± 0.039 | 0.732 ± 0.07 | 0.652 ± 0.094 | 0.602 ± 0.11 | 0.565 ± 0.12 | 0.511 ± 0.13 | 0.491 ± 0.14
1 µM | 0.913 ± 0.0042 | 0.762 ± 0.026 | 0.692 ± 0.041 | 0.646 ± 0.03 | 0.578 ± 0.034 | 0.524 ± 0.039 | 0.498 ± 0.043 | 0.458 ± 0.04 | 0.436 ± 0.029

relative JC-1 red fluorescence
Details | 8 h | 16 h | 24 h | 32 h | 40 h | 48 h | 56 h | 64 h | 72 h
0.1 µM, coculture fibroblast: C12385 | 0.834 ± 0.011 | 0.713 ± 0.023 | 0.649 ± 0.035 | 0.553 ± 0.031 | 0.493 ± 0.031 | 0.454 ± 0.035 | 0.426 ± 0.042 | 0.421 ± 0.045 | 0.417 ± 0.051
0.1 µM, coculture fibroblast: H6013 | 0.8032 ± 0.0041 | 0.752 ± 0.032 | 0.694 ± 0.039 | 0.661 ± 0.053 | 0.619 ± 0.06 | 0.607 ± 0.064 | 0.585 ± 0.063 | 0.576 ± 0.07 | 0.547 ± 0.068
0.1 µM, coculture fibroblast: H6019 | 0.775 ± 0.012 | 0.675 ± 0.003 | 0.609 ± 0.037 | 0.518 ± 0.041 | 0.474 ± 0.029 | 0.444 ± 0.039 | 0.409 ± 0.04 | 0.392 ± 0.043 | 0.367 ± 0.041
0.1 µM, coculture fibroblast: H6076 | 0.97 ± 0.021 | 0.883 ± 0.032 | 0.826 ± 0.031 | 0.806 ± 0.031 | 0.764 ± 0.024 | 0.747 ± 0.02 | 0.724 ± 0.0087 | 0.717 ± 0.0086 | 0.708 ± 0.01
0.1 µM, coculture fibroblast: H6231 | 0.8985 ± 0.0079 | 0.792 ± 0.01 | 0.724 ± 0.033 | 0.696 ± 0.052 | 0.635 ± 0.062 | 0.616 ± 0.083 | 0.576 ± 0.1 | 0.573 ± 0.098 | 0.571 ± 0.11
0.1 µM, coculture fibroblast: HADF | 0.901 ± 0.037 | 0.817 ± 0.025 | 0.777 ± 0.036 | 0.749 ± 0.047 | 0.73 ± 0.06 | 0.711 ± 0.067 | 0.684 ± 0.079 | 0.682 ± 0.098 | 0.66 ± 0.11
0.1 µM, coculture fibroblast: HCFa | 0.822 ± 0.039 | 0.734 ± 0.039 | 0.658 ± 0.049 | 0.595 ± 0.054 | 0.524 ± 0.052 | 0.492 ± 0.053 | 0.446 ± 0.046 | 0.425 ± 0.044 | 0.386 ± 0.04
0.1 µM, coculture fibroblast: HCPF | 0.902 ± 0.07 | 0.824 ± 0.12 | 0.775 ± 0.084 | 0.763 ± 0.07 | 0.708 ± 0.061 | 0.701 ± 0.048 | 0.685 ± 0.038 | 0.655 ± 0.031 | 0.649 ± 0.027
0.1 µM, coculture fibroblast: HHSteC | 0.854 ± 0.02 | 0.749 ± 0.0015 | 0.6742 ± 0.002 | 0.605 ± 0.011 | 0.539 ± 0.0081 | 0.505 ± 0.013 | 0.474 ± 0.022 | 0.444 ± 0.019 | 0.407 ± 0.023
0.1 µM, coculture fibroblast: HMF | 0.881 ± 0.059 | 0.808 ± 0.032 | 0.74 ± 0.028 | 0.706 ± 0.018 | 0.641 ± 0.009 | 0.616 ± 0.0065 | 0.5789 ± 0.0043 | 0.5593 ± 0.0029 | 0.548 ± 0.01
0.1 µM, coculture fibroblast: HPFa | 0.917 ± 0.02 | 0.825 ± 0.03 | 0.761 ± 0.036 | 0.713 ± 0.051 | 0.678 ± 0.06 | 0.643 ± 0.056 | 0.604 ± 0.07 | 0.584 ± 0.074 | 0.54 ± 0.084
0.1 µM, coculture fibroblast: HUF | 0.874 ± 0.017 | 0.737 ± 0.01 | 0.695 ± 0.0093 | 0.586 ± 0.0084 | 0.518 ± 0.011 | 0.479 ± 0.0072 | 0.449 ± 0.0046 | 0.4398 ± 0.00097 | 0.43 ± 0.0046
0.1 µM, coculture fibroblast: Hs27A | 0.90428 ± 0.0003 | 0.8269 ± 0.0079 | 0.7583 ± 0.0057 | 0.6955 ± 0.0013 | 0.6389 ± 0.0025 | 0.6181 ± 0.0019 | 0.585 ± 0.0061 | 0.569 ± 0.0066 | 0.523 ± 0.0073
0.1 µM, coculture fibroblast: Hs343T | 0.964 ± 0.039 | 0.834 ± 0.027 | 0.765 ± 0.027 | 0.7361 ± 0.0051 | 0.6519 ± 0.001 | 0.621 ± 0.0065 | 0.581 ± 0.014 | 0.549 ± 0.022 | 0.538 ± 0.023
0.1 µM, coculture fibroblast: WS1 | 0.793 ± 0.012 | 0.687 ± 0.029 | 0.626 ± 0.072 | 0.537 ± 0.06 | 0.481 ± 0.065 | 0.452 ± 0.071 | 0.421 ± 0.07 | 0.414 ± 0.075 | 0.409 ± 0.074
1 µM, coculture fibroblast: C12385 | 0.8528 ± 0.0079 | 0.75 ± 0.024 | 0.679 ± 0.0084 | 0.5996 ± 0.0059 | 0.532 ± 0.014 | 0.503 ± 0.01 | 0.477 ± 0.0098 | 0.465 ± 0.0069 | 0.459 ± 0.006
1 µM, coculture fibroblast: H6013 | 0.918 ± 0.016 | 0.838 ± 0.0096 | 0.795 ± 0.02 | 0.763 ± 0.015 | 0.726 ± 0.012 | 0.709 ± 0.01 | 0.6863 ± 0.0018 | 0.6901 ± 0.0028 | 0.6727 ± 0.005
1 µM, coculture fibroblast: H6019 | 0.791 ± 0.063 | 0.6939 ± 0.0041 | 0.679 ± 0.019 | 0.602 ± 0.029 | 0.573 ± 0.031 | 0.552 ± 0.033 | 0.525 ± 0.044 | 0.503 ± 0.039 | 0.48 ± 0.036
1 µM, coculture fibroblast: H6076 | 0.901 ± 0.051 | 0.784 ± 0.035 | 0.747 ± 0.0093 | 0.7316 ± 0.0023 | 0.6862 ± 0.0061 | 0.684 ± 0.018 | 0.668 ± 0.027 | 0.674 ± 0.036 | 0.672 ± 0.043
1 µM, coculture fibroblast: H6231 | 0.903 ± 0.025 | 0.821 ± 0.057 | 0.727 ± 0.069 | 0.702 ± 0.07 | 0.639 ± 0.08 | 0.616 ± 0.08 | 0.584 ± 0.081 | 0.567 ± 0.083 | 0.563 ± 0.089
1 µM, coculture fibroblast: HADF | 0.9232 ± 0.0054 | 0.843 ± 0.031 | 0.791 ± 0.03 | 0.747 ± 0.059 | 0.714 ± 0.064 | 0.69 ± 0.075 | 0.657 ± 0.072 | 0.647 ± 0.077 | 0.626 ± 0.065
1 µM, coculture fibroblast: HCFa | 0.8598 ± 0.008 | 0.7423 ± 0.0065 | 0.69507 ± 0.00029 | 0.643 ± 0.0095 | 0.593 ± 0.018 | 0.575 ± 0.024 | 0.541 ± 0.028 | 0.529 ± 0.033 | 0.494 ± 0.039
1 µM, coculture fibroblast: HCPF | 0.889 ± 0.0061 | 0.764 ± 0.015 | 0.7633 ± 0.0031 | 0.731 ± 0.015 | 0.68 ± 0.028 | 0.666 ± 0.043 | 0.664 ± 0.055 | 0.63 ± 0.071 | 0.624 ± 0.076
1 µM, coculture fibroblast: HHSteC | 0.8937 ± 0.0046 | 0.786 ± 0.041 | 0.743 ± 0.029 | 0.697 ± 0.033 | 0.643 ± 0.027 | 0.615 ± 0.024 | 0.584 ± 0.024 | 0.558 ± 0.016 | 0.528 ± 0.013
1 µM, coculture fibroblast: HMF | 0.884 ± 0.0081 | 0.748 ± 0.048 | 0.706 ± 0.075 | 0.675 ± 0.12 | 0.615 ± 0.12 | 0.595 ± 0.13 | 0.562 ± 0.14 | 0.537 ± 0.14 | 0.525 ± 0.14
1 µM, coculture fibroblast: HPFa | 0.927 ± 0.017 | 0.798 ± 0.04 | 0.729 ± 0.04 | 0.68 ± 0.041 | 0.639 ± 0.059 | 0.599 ± 0.065 | 0.567 ± 0.065 | 0.544 ± 0.068 | 0.498 ± 0.071
1 µM, coculture fibroblast: HUF | 0.855 ± 0.012 | 0.716 ± 0.042 | 0.6587 ± 0.003 | 0.554 ± 0.019 | 0.488 ± 0.014 | 0.456 ± 0.015 | 0.423 ± 0.022 | 0.411 ± 0.022 | 0.405 ± 0.027
1 µM, coculture fibroblast: Hs27A | 0.909 ± 0.015 | 0.897 ± 0.061 | 0.83 ± 0.075 | 0.81 ± 0.088 | 0.77 ± 0.1 | 0.766 ± 0.098 | 0.736 ± 0.11 | 0.742 ± 0.12 | 0.701 ± 0.14
1 µM, coculture fibroblast: Hs343T | 0.945 ± 0.0097 | 0.786 ± 0.019 | 0.717 ± 0.016 | 0.678 ± 0.0077 | 0.6056 ± 0.0016 | 0.5644 ± 0.0039 | 0.5214 ± 0.0025 | 0.492 ± 0.0053 | 0.484 ± 0.013
1 µM, coculture fibroblast: WS1 | 0.831 ± 0.017 | 0.6898 ± 0.0012 | 0.642 ± 0.027 | 0.548 ± 0.026 | 0.489 ± 0.037 | 0.467 ± 0.054 | 0.438 ± 0.062 | 0.432 ± 0.072 | 0.431 ± 0.082

± gives the standard deviation of the averaged measurements. The reference is the same well before dosing, and untreated signal decays as well.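 Fibroblast labels name human fibroblasts: mostly primary ones from tissues such as uterus (C12385, HUF), lung (H6013), bone (Hs27A), adrenal (HADF) and skin (WS1), plus mammary HMF and breast cancer-associated Hs343T. The cancer cells are basal-like or mesenchymal-like triple-negative breast cancer lines. The paper calls a changed response a hit when it shifts by more than 3x the replicate standard deviation. The tissue of the other fibroblasts is not given here.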
